# PubChem BioAssay AID651640 (Broad Institute, 2012)
# The whole screen tested about 350,000 compounds, of which about 6,000 (1.7%) were called active. The shares of active, inactive and inconclusive entries below differ from those in the screen. Rule as the data show it: active = CPE inhibition above about 20% (passing the limit was not always enough); inconclusive = no clear call, values can overlap the other calls; tested in BHK-21 cells. Where a structure was tested more than once in an assay, its records may differ in their call.
# Assay: protection of cells from dengue 2 killing – plate reader, single concentration, primary screen (AID 651640);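 also: 0% = median of neutral control wells and 100% = median of positive control wells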
# Conditions: DENV2-infected cells, cytopathic effect rescue, at 9.99 µM, active compounds read high
row,Structure (SMILES),CPE inhibition
1,COc1ccc(NC(=O)c2ccc(Br)o2)cc1,inconclusive: 58.1%
2,CSc1ccc(CN2CCSCC2)cc1,inconclusive: 25.5%
3,COc1cccc(CSCC(=O)NCCc2ccccc2)c1OC,inconclusive: 23.8%
4,C[C@@H]1CCCCO[C@@H](CN(C)S(=O)(=O)c2cccs2)[C@@H](C)CN([C@H](C)CO)C(=O)c2cc(NC(=O)Nc3ccc4c(c3)OCO4)ccc2O1,inactive: -1.49%
5,CCOC(=O)c1c(C)[nH]c(C(=O)OCC(=O)N(C)CC(=O)Nc2ccccc2Cl)c1C,inconclusive: 31.2%
6,O=C(CCCOc1ccc(Cl)cc1Cl)Nc1ncccn1,inconclusive: 41.7%
7,CCCN1[C@@H]2Cn3c(ccc(-c4ccccc4F)c3=O)[C@H]1[C@@H](C(=O)NCc1ccccn1)[C@@H]2CO,inactive: -1.32%
8,CN1C(=O)c2cccc3c(S(=O)(=O)N(C)C)ccc1c23,inactive: 13.9%
9,O=C(NCc1cccnc1)c1cc(C2CCCCN2S(=O)(=O)c2cccc3cccnc23)on1 (stereo not given),inconclusive: 54.9%
10,CCOC(=O)Sc1nc2ncncc2[nH]1,inconclusive: 36.7%
11,O=C(O)Cn1c(=O)c(F)cn(C2CCCO2)c1=O (stereo not given),inconclusive: 20.4%
12,C[C@@H]1CN([C@@H](C)CO)C(=O)c2cc(NS(C)(=O)=O)ccc2O[C@H]1CN(C)S(=O)(=O)c1cn(C)cn1,inconclusive: 26.4%
13,COc1ccc(S(=O)(=O)Nc2ccc3c(c2)C(=O)N([C@@H](C)CO)C[C@H](C)[C@H](CN(C)S(=O)(=O)c2ccc(F)cc2)O3)cc1,active: 30.7%
14,CC(CCc1ccc(O)cc1)NC(c1ccccc1)c1ccc(Cl)cc1 (stereo not given),active: 55.4%
15,CC(=O)N[C@H]1CC[C@H](CC(=O)NCc2ccc(Cl)cc2)O[C@@H]1CO,inactive: 0.105%
16,CC1(C(=O)NS(=O)(=O)c2ccc(F)cc2F)CCN1C(=O)Cc1ccccc1Cl (stereo not given),inconclusive: 33.2%
17,C(=Nn1cnnc1)c1ccc2c(c1)CCC2,inconclusive: 50.8%
18,C[C@H](CO)N1C[C@H](C)[C@@H](CN(C)S(=O)(=O)c2cccs2)Oc2ccc(NC(=O)Nc3cccc4ccccc34)cc2C1=O,inconclusive: 20.6%
19,CCCNC(=O)N1CC2(CN(Cc3cccc(OC)c3)C2)c2c([nH]c3cc(OC)ccc23)[C@@H]1CO,inconclusive: 25.3%
20,O=C(Nc1ccccc1)C(Cl)C(=O)c1ccccc1 (stereo not given),inconclusive: 32.8%
21,C[C@@H]1CN([C@H](C)CO)C(=O)c2cc(/C=C/c3ccccc3)cnc2O[C@@H]1CN(C)C(=O)C1CCC1,inactive: 1.39%
22,CC1CCCCN1C(=O)CSc1nnc(-c2ccccc2F)o1 (stereo not given),inconclusive: 21%
23,COc1ccc(Cl)cc1N(CC(=O)Nc1ccccc1C(=O)N1CCOCC1)S(C)(=O)=O,inconclusive: 32.8%
24,CSc1ccc(Cl)c(C(=O)N2CCOc3ccccc32)c1,inconclusive: 24%
25,Cc1ccc(NC(=O)C2CCN(S(C)(=O)=O)CC2)cc1Cl,active: 29.2%

row,Structure (SMILES),CPE inhibition
1,OC(CSc1nc(-c2ccccc2)c(-c2ccccc2)o1)CC(O)c1ccccc1 (stereo not given),active: 30.1%
2,CC1CCCN(C(=O)COC(=O)Cc2c[nH]c3ccccc23)C1 (stereo not given),inconclusive: 20.1%
3,Cc1cc(C(=O)Nc2ccccc2C)on1,inconclusive: 21.2%
4,N#C[C@H]1[C@@H](c2ccccc2-c2ccccc2)[C@H](CO)N1C(=O)NC1CCCCC1,inactive: 7.23%
5,CCNC(=S)SCCOc1ccccc1C,inactive: 3.82%
6,CN(CC(=O)Nc1ccc(F)c(F)c1F)C(=O)c1nn(Cc2ccccc2)c(=O)c2ccccc12,inconclusive: 27.7%
7,CC(C)c1ccc(NC(=O)c2snc3ccc(Cl)cc23)cc1,inactive: -11.9%
8,O=C(NCCc1ccccc1)[C@@H]1N[C@@H]2c3ccc(-c4ccccc4)c(=O)n3C[C@@H]2[C@H]1CO,inconclusive: 28.6%
9,Cc1cc(-c2ccccc2)n2nc(N)nc2n1,inactive: -8.18%
10,CS(=O)(=O)Nc1ccc2c(c1)[C@H]1C[C@@H](CC(=O)N3CCOCC3)O[C@@H](CO)[C@H]1O2,inconclusive: 23.5%
11,C[C@@H]1CCCCO[C@H](CN(C)S(C)(=O)=O)[C@@H](C)CN([C@H](C)CO)C(=O)c2cc(NC(=O)CCC(F)(F)F)ccc2O1,active: 116%
12,CCC1Nc2ncnc(N3CCCCC3)c2N(Cc2ccccc2)C1=O (stereo not given),inconclusive: 21.7%
13,O=C1N[C@@H](Cc2ccccc2)[C@@H](c2ccco2)O1,inconclusive: 54.2%
14,O=C(NCC[C@H]1CC[C@@H](NC(=O)C2CC2)[C@@H](CO)O1)c1ccc(F)cc1,inconclusive: 22.6%
15,O=C(Cc1ccccn1)N[C@H]1CC[C@@H](CCn2cc(-c3ccccc3)nn2)O[C@H]1CO,inconclusive: 28.3%
16,CN1CCN(C(=O)C[C@H]2C[C@H]3c4cc(NC(=O)c5cccnc5)ccc4O[C@H]3[C@@H](CO)O2)CC1,inactive: -0.0265%
17,CCn1cc(C(=O)O)c(=O)c2cnc(N3CCN(C(=S)Nc4ccc(F)cc4)CC3)nc21,inactive: -0.05%
18,O=C(C[C@H]1CC[C@@H](NC(=O)Nc2ccc3c(c2)OCO3)[C@@H](CO)O1)NCc1ccc2c(c1)OCO2,active: 20.3%
19,CC(C)NC(=O)CSc1ccccc1C(=O)NNC(=O)Cn1ccc(C(F)(F)F)n1,inconclusive: 46.3%
20,COc1ccc(NC(=O)Nc2ccc3c(c2)[C@H]2C[C@@H](CC(=O)N(C)C)O[C@@H](CO)[C@H]2O3)cc1,inconclusive: 45.3%
21,O=C(OCC1CC(c2ccccc2)=NO1)c1ccc(Br)cc1 (stereo not given),inconclusive: 110%
22,COc1ccc(S(=O)(=O)N(C)C[C@@H]2OCCCC[C@@H](C)Oc3ccc(NC(=O)CCC(F)(F)F)cc3C(=O)N([C@@H](C)CO)C[C@@H]2C)cc1,inactive: -14.7%
23,Cc1cc(C)cc(NC(=O)CN2CCN(c3ccccn3)CC2)c1,inconclusive: 23.2%
24,CCN(CC)CCNC(=O)c1cc2c(s1)-c1ccccc1SC2,inactive: 8.3%
25,COc1ccc(NC(=O)c2cc(CC(C)C)nc3ccccc23)cc1,inactive: -4.08%

# Entries from the list above containing a thiophene ring, fused or not:
row,Structure (SMILES),CPE inhibition
4,C[C@@H]1CCCCO[C@@H](CN(C)S(=O)(=O)c2cccs2)[C@@H](C)CN([C@H](C)CO)C(=O)c2cc(NC(=O)Nc3ccc4c(c3)OCO4)ccc2O1,inactive: -1.49%
18,C[C@H](CO)N1C[C@H](C)[C@@H](CN(C)S(=O)(=O)c2cccs2)Oc2ccc(NC(=O)Nc3cccc4ccccc34)cc2C1=O,inconclusive: 20.6%
24,CCN(CC)CCNC(=O)c1cc2c(s1)-c1ccccc1SC2,inactive: 8.3%
